In patent US20220002432A1:
Residue numbers refer to the chain shown, from its start. No constants are given. Whether binding was seen depends on the method and setting. Some entries that bind do so weakly or less than the wild type.

T1: Rhesus-ICAM1 (rhesus) (UniProt Q5NKV6)
T1 sequence (looked up): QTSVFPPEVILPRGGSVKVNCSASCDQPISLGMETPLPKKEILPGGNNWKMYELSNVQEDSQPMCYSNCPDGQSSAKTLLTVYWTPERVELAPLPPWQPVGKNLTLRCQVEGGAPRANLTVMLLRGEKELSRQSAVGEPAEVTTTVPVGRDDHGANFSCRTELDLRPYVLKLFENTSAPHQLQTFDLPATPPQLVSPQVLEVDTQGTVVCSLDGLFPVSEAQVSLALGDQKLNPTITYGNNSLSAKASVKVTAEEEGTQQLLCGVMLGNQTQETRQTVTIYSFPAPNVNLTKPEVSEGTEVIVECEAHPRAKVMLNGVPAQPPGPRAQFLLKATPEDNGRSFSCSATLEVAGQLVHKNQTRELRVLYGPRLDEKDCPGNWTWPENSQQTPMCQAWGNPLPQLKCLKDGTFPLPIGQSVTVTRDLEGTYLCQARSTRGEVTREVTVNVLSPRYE

B1: 11F2 (antibody, human IgG1, kappa, V domains shown)
VH: QSVEESGGGLVKPGGTLTLTCTVSGFSLSSHAMGWVRQAPGKGLEYIGIIGSSDRTYYASWAKGRFTISKTSTTVDLKITSPTTEDTATYFCVRDPYDSYDDGYRLWGPGTLVTVSS
VL: AYDMTQTPASVEVAVGGTVTIKCQASQSIYRYLSWYQKKPGQRPKFLIYDASKLASGVPSRFEGSGSGTEFTLTISGAQSDDAATYYCQQAYSSGSIDNAFGGGTEVVVKR
B2: 16E4 (antibody, human IgG1, kappa, V domains shown)
VH: QSVEESGGRLVTPGTPLTLTCTVSGFSLSSHAMGWVRQAPGKGLQYIGIIGSSGSTYYASWAKGRFTISKTSTTVDLRLTSPTTEDTATYFCVRDPYDSFGDAYRLWGPGTLVTVSS
VL: B1 VL with R31S, L33C, K38Q, E63K, A78M, G95S, S96N, I97V
B3: 6G8 (antibody, human IgG1, kappa, V domains shown)
VH: B1 VH with H31Y, D54G, R55S, S60T, D102A, G103A
VL: B1 VL with T5S, R31S, K38Q, F46L, E63T, A78V, G95S, S96N, I97V, A100V
B4: 2E3 (antibody, human IgG1, kappa, V domains shown)
VH: B1 VH with H31Y, D54G, R55S, Y100F, D101G
VL: AYDMTQTPASVEVAVGGTVTIKCQASENIYRYLLWYQQKLGQRPSLLIYDASKLASGVPSRFKGSGSGTEFTLTISGVQSDDAATYYCQQAYSSSNVDNAFGGGTEVVVKR
B5: 8B12 (antibody, human IgG1, kappa, V domains shown)
VH: B1 VH with S30T, Y100F
VL: B4 VL with E27Q, N28S, R31S, L34S, L40P, S45K, L46F, L54V, G77A, V108M
B6: Anti-ICAM1 G12 (antibody, human IgG1, lambda, V domains shown)
VH: QVQLQESGGGLVQPGGSLRLSCAASGFTFSSYAMSWVRQAPGKGLEWVSAISGSGGSTYYADSVKGRFTISRDNSKNTLYLQMSSLRAEDTAFYYCANSAYTGGWYDYWGHGTLVTVSS
VL: ASELTQDPAVSVALGQTVKITCQGDSLRTYYASWYQQRPGQAPVLVIYGENSRPSGIPDRFSGSSSGNTASLTITGAQAEDEADYYCNSRDSSGNHLRVFGGGTKLTVLG
B7: 3D8 (antibody, human IgG1, kappa, V domains shown)
VH: QSLEESGGDLVKPGASLTLTCTASGFSFSSSYWMCWVRQAPGKGLEWIACIDGGSAGYNYYATWAKGRFTISKTSSTTVTLQMTSLTAADRATYFCARGPGSSYNLWGPGTLVTVSS
VL: DIVMTQTPASVEAAVGGTVTIKCQASQSISSYLSWYQQKPGQPPKLLIYRASTLASGVPSRFKGSGSGTEFTLTISDLESADAATYYCQSYVFGSSRSYDNAFGGGTEVVVKR
B8: 15D10 (antibody, human IgG1, kappa, V domains shown)
VH: QSVEESGGRLVTPGTPLTLTCTASGFSLNNYYMSWVRQAPGKGLEWIGIISDSDNTYYASWAKGRFTISKTSTTVDLKITSPTTEDTATYFCARDWSLDSSSGYYYYDMDLWGPGTLVTVSA
VL: AYDMTQTPASMEVAVGGTVTIKCQASQNIHSWLAWFQQKPGQPPKRLIYKASTLASGVPSRFKGSGSGTQFTLTISGVQSDDAATYYCQQGYSRSDGEHVFGGGTEVVVKR
B9: 14H1 (antibody, human IgG1, kappa, V domains shown)
VH: B8 VH with A23V, N29S, D54G, N55S, K78S, L98Y, S101T
VL: B8 VL with M11V, N28S, H30N, A34S, Q37H, P59S, Q79E, D81A
B10: 8H1 (antibody, human IgG1, kappa, V domains shown)
VH: B8 VH with N29S, D54G, N55S, L98Y
VL: B8 VL with A1G, M11V, N28S, H30N, Q38H, P59S, Q79E, D81A
B11: 11G7 (antibody, human IgG1, kappa, V domains shown)
VH: QSVEESGGRLVTPGTPLTLTCTVSGFSLSDYYMSWVRQAPGKGLEWIGIISDSGSTYYASWAKGRFTISKTSSTTVDLKITSPTTEDTATYFCARDWSYDSSSGYYYYDMDLWGPGTLVTVSA
VL: B8 VL with M11V, N28S, H30N, A34S, Q37H, P59S, Q79E, D81A
B12: 4H5 (antibody, human IgG1, kappa, V domains shown)
VH: B8 VH with N29S, D54G, N55T, L98Y
VL: B8 VL with A1G, M11V, N28S, H30N, A34V, Q38H, P59S, Q70H, Q79E, D81A
B13: 8E5 (antibody, human IgG1, kappa, V domains shown)
VH: QSLEESGGRLVTPGTPLTLTCTVSGFSLSNYAMNWVRQAPGKGLEWIGYISTRGSAYYASWAKGRFTISKTSTTVDLKMTSPTTEDTATYFCARGDLVGGGYIRGSFDPWGPGTLVTVSS
VL: AQVLTQTPSPVSAAVGGTVTINCQSSQSVVSDKLLSWFQQKPGQPPKLLIYGASTLASGVPSRFKGSGSGTQFTLTISDVQSDDAATYYCAGAYSTDSDIRAFGGGTEVVVKR
B14: 5B12 (antibody, human IgG1, kappa, V domains shown)
VH: QSLEESGGRLVTPGTPLTLTCTVSGFSLSSYGMSWVRQAPGKGLEYIGWISFSGSAYYANWAKGRFTISKTSTTVDLKITSPTTEDTATYFCARGGDYGGSTYILNLWGPGTLVTVSS
VL: AFELTQTPSSVEAAVGGTVTIKCQASESIDSYLSWYQQKPGQPPKLLIYAASTLASGVSSRFKGSGSGTEFTLTISDLESADAATYYCQSYSGTITTSGGAFGGGTEVVVKR
B15: 10B8 (antibody, human IgG1, kappa, V domains shown)
VH: B14 VH with T15G, P16S
VL: B14 VL with D30N, T96S
B16: 14B3 (antibody, human IgG1, kappa, V domains shown)
VH: QSLEESGGDLVKPGASLTLTCTASGFSSSSGYYICWVRQAPGKGLEWIACIGAGSGAAYYASWAKGRFTMSKTSSTTVTLQMTSLTAADTATYFCARGGFVVGGGYGGYCFNLWGPGTLVTVSS
VL: AQVLTQTASSVSATVGGTVTISCQSSESVDVNNLAWYQQKPGQPPKLLIYSASTLASGVPSRFKGSGSGTQFTLTVSDLESADAATYYCAGGYSGNIFAFGGGTAVVVKR

target: T1, Rhesus-ICAM1 (rhesus); assay: ELISA: plate coated with 1 ug/ml recombinant rhesus ICAM1 ECD, serially diluted antibody, OD450

binding, binds:
B1, B2, B3, B4, B5, B6, B7, B8, B9, B10, B11, B12, B13, B14, B15, B16
